Where a SMILES comes first, the peptide text is derived from it. [ ]: non-standard residue; d: D form. The star is where a group is joined. DOTA = O=C(O)CN1CCN(CC(=O)O)CCN(CC(=O)*)CCN(CC(=O)O)CC1; 2Nal = N[C@@H](Cc1ccc2ccccc2c1)C(=O)O; PEG6 = NCCOCCOCCOCCOCCOCCOCCC(=O)O

The nature of the data set: Water proton relaxation measurements / NMRD profiles. The format is physicochemical. Particulars: 298 K; for τV, correlation time for the collision-related modulation of the ZFS Hamiltonian: fitting of NMRD profile. The text has this:
The paramagnetic relaxivity (r1p) of Gd (III) complexes is given by:1 r1p∝1/T1MH=Kf(τR) where K is a constant related to the strength of the dipolar interaction between the protons and the electronic magnetic moment, and τR is the correlation time associated with the reorientation of the Gd-H magnetic vector. This means that slowly moving high molecular weight systems are endowed with higher relaxivity than rapidly reorienting low molecular weight ones. In the case of self assembling Gd-containing systems, the extent of aggregation may be evaluated through the measure of the water proton longitudinal relaxation rate of its aqueous solution. In Fig. 8 are reported the NMRD (Nuclear Magnetic Resonance Dispersion) profiles of Gd-2Nal2 acquired at 21.5 MHz (0.5 T) and 298 K as a function of the complex concentration. […] At concentrations higher than 10–15 mg/mL the relaxivity assumes an almost stable value which corresponds to the system in the completely aggregated form. By analyzing the profile of the relaxivity data as a function of the applied field strength (NMRD - Nuclear Magnetic Relaxation Dispersion) it is possible to obtain an accurate determination of the reorientational correlation time (τR)[16], that is strictly related to the molecular size of the investigated system. NMRD profiles were acquired below (black circles) and above (white ones) the CAC values determined by ANS titration and ^1HNMR. […] Data were analyzed using the Solomon-Bloembergen-Morgan model, [18], considering one water molecule in the inner coordination sphere (q = 1) and fixing the exchange lifetime (τM) to a reliable value ([…]) on the basis of those previously reported for mono-amido DOTA derivatives[19]–[22]. The quantitative analysis of the NMRD profile of the aggregated form was not satisfactory when the simple inner- outer-sphere model was used, so the Lipari-Szabo approach was used for the description of the rotational dynamics. This model allows one to take into account the presence ofa certain degree of internal rotation superimposed on the overall tumbling motion, [24]. These two types ofmotion, a relatively fast local rotation of the coordination cage about the linker to the peptide scaffold superimposed on the global reorientation of the system, are characterized by different correlation times: τR ^l and τR ^g, respectively. The degree of correlation between global and local rotations is given by the parameter S^2, which takes values between 0 (completely independent motions) and 1 (entirely correlated motions).
Measure of R1 (longitudinal water proton relaxation rates) of Gd-2Nal2 were carried out on a Stelar Spinmaster spectrometer (Pavia, Italy) operating at 0.5 T which corresponds to 21.5 MHz Proton Larmor Frequency. R1 (1/T1) values were measured at 298 K by mean of the standard inversion-recovery technique. For the measure of the proton 1/T1 NMRD (Nuclear Magnetic Resonance Dispersion) profiles, a fast field-cycling Stelar relaxometer, operating over a continuum of magnetic field strengths from 0.00024 to 0.47 T (corresponding to 0.01–20 MHz proton Larmor frequencies) was used. The temperature was set at 298 K. The relaxometer is computer controlled and the absolute uncertainty is 1/T1 ± 1%. Additional data points were obtained on a Stelar Spinmaster spectrometer coupled to an electromagnet tunable at different Larmor Frequencies between 21.5 and 70 MHz. […]

[1] abbreviates: 25 mg/mL, Lipari-Szabo approach.

As for `NC(=O)[C@H](Cc1ccc2ccccc2c1)NC(=O)[C@H](Cc1ccc2ccccc2c1)NC(=O)CCOCCOCCOCCOCCOCCOCCNC(=O)CN1CCN(CC(=O)O)CCN(CC(=O)O)CCN(CC(=O)O)CC1` [Gd-2Nal2, Gd-DOTA-L6-(2Nal)2] ({DOTA-PEG6}-[2Nal]-[2Nal]-NH2), the “τR, reorientational correlation time” value (1 mg/mL, Solomon-Bloembergen-Morgan fitting of NMRD profile) turned out to be 184 ps. The “τV, correlation time for the collision-related modulation of the ZFS Hamiltonian” value (1 mg/mL) came out at 50 ps. Further, under setting [1], the “τR^g, global rotational correlation time” value turned out to be 4800 ps and the “τR^l, local rotational correlation time” value is on record as 423 ps. Moreover, under “25 mg/mL”, the “τV, correlation time for the collision-related modulation of the ZFS Hamiltonian” value amounted to 43 ps.

(Values after publication PMC5428233, “Cross-beta nanostructures based on dinaphthylalanine Gd-conjugates loaded with doxorubicin” (Scientific Reports, 2017).)
